## Results of single-concentration screens

Chains of the proteins cited; added tags and fusions are not shown.
UniProt P9WFT3, whole entry: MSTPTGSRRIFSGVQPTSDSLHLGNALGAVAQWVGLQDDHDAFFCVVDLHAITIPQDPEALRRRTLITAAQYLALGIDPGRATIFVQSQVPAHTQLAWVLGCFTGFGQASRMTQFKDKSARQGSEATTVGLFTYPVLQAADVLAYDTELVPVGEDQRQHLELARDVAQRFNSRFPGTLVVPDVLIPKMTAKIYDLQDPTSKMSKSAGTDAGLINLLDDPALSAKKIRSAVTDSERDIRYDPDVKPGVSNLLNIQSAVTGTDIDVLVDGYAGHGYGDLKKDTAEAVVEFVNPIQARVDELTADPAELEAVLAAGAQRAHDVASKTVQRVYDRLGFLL
UniProt P9WPC5, whole entry: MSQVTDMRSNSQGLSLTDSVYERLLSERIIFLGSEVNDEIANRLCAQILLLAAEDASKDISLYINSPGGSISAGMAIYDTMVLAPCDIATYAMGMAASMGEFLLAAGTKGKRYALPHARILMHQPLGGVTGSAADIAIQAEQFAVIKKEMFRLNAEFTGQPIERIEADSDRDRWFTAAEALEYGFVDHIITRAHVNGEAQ
UniProt P9WPC3, whole entry partner: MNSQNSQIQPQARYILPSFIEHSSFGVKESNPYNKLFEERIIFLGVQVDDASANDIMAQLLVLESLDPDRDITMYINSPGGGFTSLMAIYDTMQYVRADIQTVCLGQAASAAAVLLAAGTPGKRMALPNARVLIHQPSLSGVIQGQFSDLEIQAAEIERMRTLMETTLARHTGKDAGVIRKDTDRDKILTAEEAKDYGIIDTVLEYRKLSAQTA

MtTrpRS: 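Enzyme assay of tryptophanyl-tRNA synthetase; the read-out is not stated. Target: Tryptophan-tRNA ligase, Mycobacterium tuberculosis (UniProt P9WFT3). Concentration: 10 µM. Higher most likely means stronger inhibition; the record gives no direction and few retests gave an IC50. Size under these conditions: about 65,000 compounds, about 64 of them at 50% or above in at least one test.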
ClpP1P2: 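ClpP1P2, Mycobacterium tuberculosis (UniProt P9WPC5 and UniProt P9WPC3). Protease assay of ClpP1P2, read by the AMC dye that it sets free. Tested at 50 µM. Higher reads as stronger inhibition, judged from the few compounds that gave an IC50. Most other retested compounds had strongly negative values. Size under these conditions: about 69,000 compounds, about 10 of them at 50% or above in at least one test.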

Values are the deposited “Percent Effect”, in %. The record does not define 0% and 100%; most values in the screen are far below 50% and negative numbers occur (in some assays of this library far below -100). This is an unselected part of the compounds tested.

For CC(=O)N[C@@H]1CN(C(=O)c2cnccn2)C[C@H]1c1ccc(C)cc1 the result was MtTrpRS: -2.418%; ClpP1P2: 1.247%. Result for CC(c1cccc(O)c1)N(C)S(=O)(=O)c1cccnc1 (centres undefined) was MtTrpRS: -3.406%; ClpP1P2: 16.6%. Result for Cn1cc(C(=O)N2CCCC2c2ccc3c(c2)OCO3)ccc1=O (centres undefined) was MtTrpRS: -2.624%; ClpP1P2: -7.293%. With CC(C)N(C)S(=O)(=O)c1ccc2c(c1)CCN(C(=O)c1cccnn1)C2 the screen gave MtTrpRS: 7.498%; ClpP1P2: -5.586%. O=C(CCc1ccco1)N1CCC(Oc2ccccc2)(C(=O)O)CC1 gave MtTrpRS: -3.539%; ClpP1P2: -13.12%.

Result for c1ccc(C2=NOC3(CCN(Cc4c[nH]c5ccccc45)CC3)C2)cc1 was MtTrpRS: 5.272%; ClpP1P2: 6.262%. CCc1ccc(CNC(=O)Nc2cc(C)on2)s1 read MtTrpRS: -0.2337%; ClpP1P2: -5.754%. For Cc1c(C2NC3(CCCC3)C(=O)N2CC2CC2)cc(C#N)n1C (centres undefined) the result was MtTrpRS: -1.332%; ClpP1P2: -10.05%. COCCN1Cc2ccccc2C2(CCN(C(=O)c3ccco3)CC2)C1 gave MtTrpRS: -7.181%; ClpP1P2: -14.13%. Result for c1ccc(-n2ncc(CN3CCCC(Cn4cncn4)C3)n2)cc1 (centres undefined) was MtTrpRS: -6.006%; ClpP1P2: 10.1%.

CC(C)=CCN1C[C@H]2CC[C@@H]1CN(C(=O)Cc1c(C)nc(C)[nH]c1=O)C2 read MtTrpRS: 12.23%; ClpP1P2: 8.225%. CC(c1nc(C2CC2)no1)N1CCN(Cc2ccccc2F)CC1 (centres undefined) gave MtTrpRS: -5.556%; ClpP1P2: -1.664%. Cc1oncc1C(=O)NCc1cc(=O)n2c(n1)CN(CC(C)C)CCC2 read MtTrpRS: -3.601%; ClpP1P2: 2.851%. With CCCc1nncn1-c1cc(OC)ccc1OC the screen gave MtTrpRS: -2.624%; ClpP1P2: 0.3237%. For O=C(Nc1cnn(C2CCOCC2)c1)c1ccc2c(c1)OCO2 the result was MtTrpRS: -3.118%; ClpP1P2: -11.37%.

Result for Cc1nc(CCC(=O)NC2CCC2)cc(C2CCNCC2)n1 was MtTrpRS: 1.233%; ClpP1P2: 7.197%. With O=C1COC2(CCN(C(=O)C3CC=CC3)CC2)CN1Cc1cccnc1 the screen gave MtTrpRS: 1.759%; ClpP1P2: -1.943%. For COc1cccc(CC(=O)N2CCN(C)c3ncccc3C2)c1 the result was MtTrpRS: -6.506%; ClpP1P2: -3.359%. CC(C)(O)CCc1cccc(C(=O)NCc2nccs2)c1 read MtTrpRS: 3.558%; ClpP1P2: 0.883%. Cc1cc(C)n(-c2cncc(N3CCN(C(=O)CN(C)C)CC3)n2)n1 read MtTrpRS: -1.144%; ClpP1P2: -24.71%.

N#CC1(C(=O)NCCCNc2ccc(C(F)(F)F)cn2)CCCC1 gave MtTrpRS: -4.245%; ClpP1P2: 11.94%. Cc1csc(N2CCN(C(=O)Cc3cccs3)CC2)n1 read MtTrpRS: -11.02%; ClpP1P2: -31.64%. With CCOc1ccccc1NC(C)C(=O)N(C)Cc1cccc(F)c1 (centres undefined) the screen gave MtTrpRS: 1.146%; ClpP1P2: 6.304%. With O=C(c1ncccn1)N1CCC[C@]2(C[C@@H](OCC3CC3)CO2)C1 the screen gave MtTrpRS: -3.127%; ClpP1P2: -6.614%. Result for CCN1C[C@@H]2[C@@H](OC)CCN(S(=O)(=O)c3ccccc3)[C@@H]2C1 was MtTrpRS: -1.762%; ClpP1P2: 16.83%.

For CCc1ccc(S(=O)(=O)Nc2cnc(N3CCOCC3)nc2)cc1 the result was MtTrpRS: 1.025%; ClpP1P2: -16.02%. Cc1cccc(C(=O)NC2CCN(c3cnn(C)c3)C2=O)c1C (centres undefined) read MtTrpRS: -0.7916%; ClpP1P2: -0.2964%. CN(C)C(=O)[C@H]1CC[C@@H]2[C@@H](CCN2Cc2ccccn2)O1 gave MtTrpRS: -0.2907%; ClpP1P2: -3.557%. Result for CC(=O)NC1(C(=O)N(C)Cc2c(C)noc2C)CCCCC1 was MtTrpRS: -4.406%; ClpP1P2: 9.876%. CCC(C)(C)NC(=O)C1CC(=O)N(CC2CC2)C1 (centres undefined) gave MtTrpRS: -3.013%; ClpP1P2: 8.052%.

With Cc1nccc(CC2COCCN(c3cnccn3)C2)n1 (centres undefined) the screen gave MtTrpRS: 8.22%; ClpP1P2: -38.63%. Result for COc1cccc2ccn(CC(=O)NCCC(C)C)c12 was MtTrpRS: -3.291%; ClpP1P2: -0.2082%. Result for COCC(=O)N1CCC(Cc2nccnc2-c2c(C)n[nH]c2C)C1 (centres undefined) was ClpP1P2: 4.453%. Cc1cn2nc(N3CCCC3Cn3nc(C)cc3C)sc2n1 (centres undefined) read MtTrpRS: -1.072%; ClpP1P2: 2.233%. CCC(CC)(CC)NC(=O)Nc1nnc(-c2ccccn2)s1 read MtTrpRS: -3.122%; ClpP1P2: -3.207%.

CN(Cc1nnc2n1CCC2)S(=O)(=O)c1ccc(Br)cc1Cl gave MtTrpRS: -5.12%; ClpP1P2: 4.632%. Result for CCN(C)Cc1cnc(S(=O)(=O)CC)n1CCOC was MtTrpRS: 0.08353%; ClpP1P2: -6.396%. CC(C)C(NC(=O)Cc1ccccc1)C(=O)NCc1ccc(O)nc1 (centres undefined) gave MtTrpRS: 1.728%; ClpP1P2: -6.707%.

Repeated from the top, 5 entries:

| compound | MtTrpRS | ClpP1P2 |
|---|---|---|
| `CC(=O)N[C@@H]1CN(C(=O)c2cnccn2)C[C@H]1c1ccc(C)cc1` | -2.418% | 1.247% |
| `CC(c1cccc(O)c1)N(C)S(=O)(=O)c1cccnc1` (centres undefined) | -3.406% | 16.6% |
| `Cn1cc(C(=O)N2CCCC2c2ccc3c(c2)OCO3)ccc1=O` (centres undefined) | -2.624% | -7.293% |
| `CC(C)N(C)S(=O)(=O)c1ccc2c(c1)CCN(C(=O)c1cccnn1)C2` | 7.498% | -5.586% |
| `O=C(CCc1ccco1)N1CCC(Oc2ccccc2)(C(=O)O)CC1` | -3.539% | -13.12% |

From ChEMBL document CHEMBL3988442, “University of Dundee, Small-Polar-MMV Screening Library” (2021).